The values that follow are results of earlier work, collected in patent publication US20060094692A1, “Pharmaceutical formulations of camptothecins and process for making same” (BioNumerik Pharmaceuticals, Inc., priority 2004, published 2006).

The conditions of this series: closed E-ring lactone form, in water.

For `CC[C@@]1(O)C(=O)OCc2c1cc1n(c2=O)Cc2cc3ccccc3nc2-1` [CPT, Camptothecin], the water solubility entry is given as “approximately 0.1 microgram of drug dissolving in 1 mL of water”.
